In PubChem BioAssay AID2685 (National Center for Advancing Translational Sciences (NCATS), 2010):
Some of the results follow. Further columns of the screen follow, without active or inactive calls. The list favours compounds with an active or inconclusive main result. Words in brackets tell the shape of the fitted curve; partial curves, single points and poor fits give uncertain potencies.

Assay: qHTS Assay for Lipid Storage Modulators in Drosophila S3 Cells;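 as to cell number change: cells counted by Cell Tracker Red CMTPX staining in the red channel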
Conditions: BODIPY lipid droplet fluorescence, 18-24 h; for cell number change: measured here: cell count max response, cells fed with added oleic acid
Outline: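 Drosophila S3 cells got compounds at several concentrations plus oleic acid (400 uM solution). Laser-scanning cytometry with 488 nm excitation read lipid droplets at 500-530 nm and cells at 575-640 nm. Percent activity was relative to 20 uM Triacsin C.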

[1] = measured here: lipid fluorescence (Fed channel) AC50, cells fed with added oleic acid
[2] = measured here: cell number channel AC50, cells fed with added oleic acid

Row | Compound | cell number change [%] | AC50 [1] | AC50 [2]
1 | COc1ccc(NS(=O)(=O)c2cc(NC(=O)c3ccc(=O)[nH]c3)ccc2C)cc1 | -10.8 | 20.6 µM [rising, single point] | –
2 | O=[N+]([O-])c1ccccc1/C=N/n1c(C2CCCCC2)n[nH]c1=S | -30 | – | 0.00517 µM [falling, full curve, poor fit]
3 | Cc1occc1C(=O)NCCc1ccc(Cl)cc1 | 20.9 | 29.1 µM [rising, single point] | –
4 | Nc1cccc2c1C(=O)N(Cc1nnc(-c3ccccc3Br)o1)C2=O | 29.8 | – | –
5 | O=C(CSc1nnnn1-c1cccnc1)NCc1cccs1 | 1.95 | 0.461 µM [rising, full curve, poor fit] | –
6 | O=C(N/N=C/c1cccnc1)c1cc2ccccc2cc1O | 7.18 | 20 µM [rising, partial curve, poor fit] | –
7 | CN(C)S(=O)(=O)c1cc(NC(=O)c2ccc(-n3ccnc3)c([N+](=O)[O-])c2)ccc1Cl | – | 14.6 µM [falling, partial curve] | –
8 | COc1ccc(N(C(=O)c2ccco2)S(=O)(=O)c2ccccc2)cc1 | 12.8 | – | –
9 | N#Cc1c(N)n(CCCN2CCOCC2)c2nc3ccccc3nc12 | 2.59 | – | –
10 | COc1ccc(N(C(=O)c2ccco2)C(C(=O)NC2CCCC2)c2cccnc2)c(OC)c1 (stereo not given) | 9.52 | – | –
11 | CC(=O)NCCc1nc2ccccc2n1CCCCOc1ccccc1 | 2.6 | 1.03 µM [rising, full curve, poor fit] | –
12 | COc1ccc(-c2c[n+](CC(=O)OC3CC(C)CCC3C(C)C)c3n2CCC3)cc1 (stereo not given) | -54.7 | 4.61 µM [falling, full curve] | 4.61 µM [falling, full curve, poor fit]
13 | O=S(=O)(Nc1cc(Sc2cccc3cccnc23)c(O)c2ccccc12)c1ccccc1 | -59.6 | 2.31 µM [falling, full curve] | 11.6 µM [falling, partial curve]
14 | CC1CCCN(C(=O)c2ccc([N+](=O)[O-])o2)C1 (stereo not given) | 13.5 | 0.794 µM [falling, full curve, poor fit] | –
15 | CCn1c(SCC(=O)N/N=C/C(C)=C/c2ccco2)nnc1-c1ccccc1 | 6 | 0.103 µM [rising, full curve, poor fit] | –
16 | CC(C)(CNc1ccc(C(F)(F)F)cc1[N+](=O)[O-])N1CCOCC1 | -3.18 | 23.1 µM [falling, single point] | –
17 | CCN(c1ccccc1)S(=O)(=O)c1ccc(C(=O)N2CC(C)CC(C)C2)cc1 (stereo not given) | 26.3 | 1.03 µM [rising, partial curve, poor fit] | –
18 | C=CCn1c(SCC(=O)N(CC)C2CCS(=O)(=O)C2)nnc1-c1ccccc1 (stereo not given) | 10.9 | – | –
19 | Fc1ccccc1NC(=S)NCCc1ccc(Cl)cc1 | 2.31 | 0.206 µM [rising, partial curve, poor fit] | –
20 | COc1ccc2[nH]c(=O)c(CN(Cc3nnnn3CCc3ccccc3)CC3CCCO3)cc2c1 (stereo not given) | 106 | 5.17 µM [rising, single point] | 1.3 µM [rising, full curve]
21 | COc1ccc(OC)c(C2NC(=O)c3sc(=S)n(-c4ccccc4)c3N2)c1 (stereo not given) | -36.5 | – | –

Row | Compound | cell number change [%] | AC50 [1] | AC50 [2]
22 | Cc1c(N2C(=O)CS/C2=N\N=C\c2ccc(Br)cc2)c(=O)n(-c2ccccc2)n1C | 12.1 | 3.26 µM [falling, single point] | –
23 | Cc1[nH]c2ccccc2c1C(=O)COC(=O)C1CC(O)CN1S(=O)(=O)c1ccc(Cl)cc1 (stereo not given) | 15.4 | 0.517 µM [rising, full curve] | –
24 | CCOc1ccc(OCc2cccc(C(=O)N/N=C/c3cccnc3)c2)cc1 | -15.1 | 0.0461 µM [rising, partial curve, poor fit] | –
25 | CCC(C)c1ccc(OCCn2cc(/C=N/NC(=O)CSc3nnc(C)s3)c3ccccc32)cc1 (stereo not given) | -31.8 | 29.1 µM [falling, single point] | 29.1 µM [falling, single point]
26 | CCOc1ccc(C(=O)CCN2CCCCC2)cc1 | 1.22 | 29.1 µM [falling, single point] | –
27 | Cc1ccc(CSc2nnc(Nc3ccc(C)cc3)s2)cc1 | 1.95 | – | –
28 | Cc1cc[n+](CC(=O)c2cccs2)cc1 | -47.2 | 0.184 µM [falling, full curve, poor fit] | 18.4 µM [falling, partial curve, poor fit]
29 | N#C/C(=C\c1ccncc1)c1nc2ccccc2c(=O)[nH]1 | – | – | 1.84 µM [rising, partial curve]
30 | COc1ccccc1-c1c(C)oc2cc(OC(=O)c3ccco3)ccc2c1=O | -29.2 | – | –
31 | CC1CN(S(=O)(=O)c2ccc(NC(=O)CCN3C(=O)c4ccccc4C3=O)cc2)CC(C)O1 (stereo not given) | 23.3 | – | –
32 | CCn1cc(C(=O)O)c(=O)c2cc(F)c(N3CCN(C(=S)NC(=O)c4ccccc4Br)CC3)cc21 | 18.5 | – | –
33 | Nc1nnc(SCn2nnc3ccccc3c2=O)s1 | -1.56 | 1.64 µM [rising, partial curve] | –
34 | COc1ccc(NC(=O)c2oc3ccccc3c2CSC)cn1 | – | 20.6 µM [falling, partial curve] | –
35 | O=C(COC(=O)c1ccc(O)cc1O)NCCN1C(=O)CSC1=O | 14.4 | 25.9 µM [rising, single point] | –
36 | NC(=O)c1cc2cc([N+](=O)[O-])ccc2oc1=O | – | 7.31 µM [rising, single point] | –
37 | CCn1c(SCC(=O)Nc2nc(C)cs2)nnc1-c1ccco1 | 124 | – | 7.31 µM [rising, partial curve]
38 | CCCCCCC(=O)Nc1cc2c(C)cc(=O)oc2cc1C | – | 0.116 µM [rising, full curve, poor fit] | –
39 | COc1ccc(C(=O)Nc2ccc(S(=O)(=O)Nc3nccc(C)n3)cc2)cc1[N+](=O)[O-] | 11.1 | 11.6 µM [rising, partial curve] | –
40 | COc1cc(S(=O)(=O)n2nc(C)cc2C)c(OC)cc1Cl | – | 2.91 µM [rising, partial curve, poor fit] | 2.91 µM [rising, partial curve]
41 | CCOC(=O)c1cc(-c2ccccc2)n(CC(=O)Nc2ccc(OCC)cc2)c1C | -15.9 | 25.9 µM [falling, single point] | –
42 | COc1ccc(Cl)cc1C(=O)OCC(=O)NC(=O)c1cccn1C | 68.8 | – | 14.6 µM [rising, single point]

Five entries from above, sorted by molar mass, smallest number first:
Row | Compound | cell number change [%] | AC50 [1] | AC50 [2]
28 | Cc1cc[n+](CC(=O)c2cccs2)cc1 | -47.2 | 0.184 µM [falling, full curve, poor fit] | 18.4 µM [falling, partial curve, poor fit]
19 | Fc1ccccc1NC(=S)NCCc1ccc(Cl)cc1 | 2.31 | 0.206 µM [rising, partial curve, poor fit] | –
16 | CC(C)(CNc1ccc(C(F)(F)F)cc1[N+](=O)[O-])N1CCOCC1 | -3.18 | 23.1 µM [falling, single point] | –
11 | CC(=O)NCCc1nc2ccccc2n1CCCCOc1ccccc1 | 2.6 | 1.03 µM [rising, full curve, poor fit] | –
17 | CCN(c1ccccc1)S(=O)(=O)c1ccc(C(=O)N2CC(C)CC(C)C2)cc1 (stereo not given) | 26.3 | 1.03 µM [rising, partial curve, poor fit] | –

Following part:

Row | Compound | cell number change [%] | AC50 [1] | AC50 [2]
43 | CN(C)c1nc(C=C(C#N)C#N)c(Cl)n1-c1ccc(F)cc1 | -37.5 | – | 0.326 µM [falling, full curve]
44 | Cc1cccc(Cn2nc(C)c(NC(=O)c3ccc(F)cc3)c2C)c1 | – | 0.326 µM [rising, full curve, poor fit] | –
45 | COc1ccc(C(=O)N(Cc2ccccc2)c2cccc(C)c2)cc1 | 31.9 | – | –
46 | COc1ccc(NC(=O)CN(C)CC(=O)NC(=O)NC2CCCCC2)cc1 | -7.98 | 4.11 µM [falling, partial curve, poor fit] | 3.66 µM [falling, single point]
47 | Cc1ccccc1-n1nnnc1SC(C)C(=O)NC1CCCc2ccccc21 (stereo not given) | -25.5 | 16.4 µM [falling, partial curve] | –
48 | COCCNC(=O)C(OC(=O)c1ccco1)c1ccccc1F (stereo not given) | 1.32 | – | –
49 | COc1ccc(-n2nc([N+](=O)[O-])c(=NCCc3ccc(Cl)cc3)n2O)cc1 | -18.6 | 29.1 µM [falling, single point] | –
50 | O=C(c1cc2ccccn2n1)N1CCN(c2ccccn2)CC1 | 10.2 | 7.31 µM [rising, full curve, poor fit] | –
51 | COc1cc(Cl)c(C)cc1Nc1ncccn1 | 7.08 | – | –
52 | O=C(Nc1cccc(NC(=O)c2ccc(Cl)cc2)n1)c1ccc(Cl)cc1 | -0.587 | 0.0461 µM [falling, full curve, poor fit] | –
53 | COc1ccccc1NS(=O)(=O)c1ccc2oc(SCC(=O)N3CCNC3=O)nc2c1 | 5.51 | 3.26 µM [falling, single point] | –
54 | Cc1cccc(N=C2NC(=O)/C(=C/c3cccs3)S2)c1 | 7.04 | 11.6 µM [rising, partial curve] | –
55 | O=C(NC1CC1)c1ccc(CS(=O)(=O)c2c(Cl)cccc2Cl)o1 | – | 0.058 µM [falling, full curve, poor fit] | 1.3 µM [rising, single point]
56 | COc1ccc(S(=O)(=O)N2CCN(C(=O)c3cc(-c4ccccc4OC)n[nH]3)CC2)cc1 | -2.02 | 29.1 µM [falling, single point] | –
57 | O=C(CN1C(=O)C2C3C=CC(C3)C2C1=O)Nc1ccc(S(=O)(=O)N2CCCCC2)cc1 (stereo not given) | -27.8 | – | 0.00517 µM [falling, full curve, poor fit]
58 | CC1CCCN(C(=O)COC(=O)/C=C/c2ccc(C(F)(F)F)cc2)C1 (stereo not given) | -21.5 | 6.51 µM [falling, single point] | –
59 | CN(C)c1ccc(NC(=O)Nc2cccc3ccccc23)cc1 | -7.53 | – | 7.31 µM [falling, single point]
60 | CCCCCc1nnc(NC(=O)c2ccc3nc[nH]c3c2)s1 | -28.9 | 29.1 µM [falling, single point] | –
61 | CN(C)c1nnnn1-c1ccc(Cl)cc1Cl | – | 0.13 µM [falling, full curve, poor fit] | –
62 | COCCN(CC(=O)Nc1ccccc1C)S(=O)(=O)c1ccc(S(=O)(=O)N2CCCC2)cc1 | – | 6.51 µM [rising, single point] | 3.26 µM [rising, partial curve]
